Source: the supplement of paper PMC4604168 (melanoma cell lines)
The other results are listed elsewhere or left out. Repeats are few or missing, and single values can be far off.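 Cells were imaged in 1,536-well plates, and nuclei stained with an antibody against cleaved PARP were counted against all DNA-stained nuclei to give the apoptosis fraction. Screening doses were chosen to leave most cells alive, and resting and induced cleaved-PARP levels differ strongly between cell lines.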

System: SkMel28
Test: cleaved PARP positive nuclei fraction relative to DMSO control; melanoma cells; higher = more apoptosis
Conditions: library dose: low library concentration; 72 h

Compound	cleaved PARP positive nuclei fraction [%]
N#CC[C@H](C1CCCC1)n1cc(-c2ncnc3[nH]ccc23)cn1 [ruxolitinib] + C=CCNC1=C2C[C@@H](C)C[C@H](OC)[C@H](O)[C@@H](C)/C=C(\C)[C@H](OC(N)=O)[C@@H](OC)/C=C\C=C(/C)C(=O)NC(=CC1=O)C2=O [Tanespimycin] (first compound 1 µM, partner dose 0.002 µM)	66.2
Cc1cn(-c2cc(NC(=O)c3ccc(C)c(Nc4nccc(-c5cccnc5)n4)c3)cc(C(F)(F)F)c2)cn1 [nilotinib] + COCC[n+]1c2c(n(Cc3cnccn3)c1C)C(=O)c1ccccc1C2=O [YM155] (first compound 0.2 µM, partner dose 0.0004 µM)	152
Cc1cn(-c2cc(NC(=O)c3ccc(C)c(Nc4nccc(-c5cccnc5)n4)c3)cc(C(F)(F)F)c2)cn1 [nilotinib] + CCN(CC)CCNC(=O)c1c(C)[nH]c(/C=C2\C(=O)Nc3ccc(F)cc32)c1C [sunitinib] (first compound 0.2 µM, partner dose 0.4 µM)	40.2
COc1cc([C@@H]2c3cc4c(cc3[C@@H](O[C@@H]3O[C@@H]5CO[C@@H](C)O[C@H]5[C@H](O)[C@H]3O)[C@H]3COC(=O)[C@H]23)OCO4)cc(OC)c1O [etoposide] + CNC(=O)c1cc(Oc2ccc(NC(=O)Nc3ccc(Cl)c(C(F)(F)F)c3)cc2)ccn1 [sorafenib] (first compound 0.02 µM, partner dose 0.4 µM)	41
Cc1cc(Nc2cc(N3CCN(C)CC3)nc(Sc3ccc(NC(=O)C4CC4)cc3)n2)n[nH]1 [Tozasertib] + CN1CCN(c2ccc3nc(-c4c(N)c5c(F)cccc5[nH]c4=O)[nH]c3c2)CC1 [Dovitinib] (first compound 0.006 µM, partner dose 0.1 µM)	72.2
COc1cc([C@@H]2c3cc4c(cc3[C@@H](O[C@@H]3O[C@@H]5CO[C@@H](C)O[C@H]5[C@H](O)[C@H]3O)[C@H]3COC(=O)[C@H]23)OCO4)cc(OC)c1O [etoposide] + Nc1cccc2c1CN(C1CCC(=O)NC1=O)C2=O [lenalidomide] (first compound 0.02 µM, partner dose 1 µM)	89.2
CC[C@]1(O)C[C@H]2CN(CCc3c([nH]c4ccccc34)[C@@](C(=O)OC)(c3cc4c(cc3OC)N(C=O)[C@H]3[C@@](O)(C(=O)OC)[C@H](OC(C)=O)[C@]5(CC)C=CCN6CC[C@]43[C@@H]65)C2)C1 [vincristine] + Cc1cn(-c2cc(NC(=O)c3ccc(C)c(Nc4nccc(-c5cccnc5)n4)c3)cc(C(F)(F)F)c2)cn1 [nilotinib] (first compound 0.0001 µM, partner dose 0.2 µM)	156
N#CC[C@H](C1CCCC1)n1cc(-c2ncnc3[nH]ccc23)cn1 [ruxolitinib] + Nc1cccc2c1CN(C1CCC(=O)NC1=O)C2=O [lenalidomide] (first compound 1 µM, partner dose 1 µM)	94.5
N#CC[C@H](C1CCCC1)n1cc(-c2ncnc3[nH]ccc23)cn1 [ruxolitinib] + COCC[n+]1c2c(n(Cc3cnccn3)c1C)C(=O)c1ccccc1C2=O [YM155] (first compound 1 µM, partner dose 0.0004 µM)	193
CCCCCCCCCCCCCCCCCCOP(=O)([O-])OC1CC[N+](C)(C)CC1 [Perifosine] + O=C(O)[C@@H]1[O][Sb](=[O])([O][Sb]2(=[O])[O][C@H]([C@H](O)CO)[C@H](O)[C@H](C(=O)O)[O]2)[O][C@H]([C@H](O)CO)[C@@H]1O [stibogluconate] (first compound 0.4 µM, partner dose 2 µM)	180
O=c1[nH]nc(Sc2ncc([N+](=O)[O-])s2)n1-c1ccc2c(c1)OCCO2 + Nc1ncn([C@H]2C[C@H](O)[C@@H](CO)O2)c(=O)n1 [decitabine] (first compound 0.2 µM, partner dose 0.1 µM)	43.6
O=C(Nc1cc(C(F)(F)F)cc(C(F)(F)F)c1)c1cc(Cl)ccc1O + CC(C)C[C@H](NC(=O)[C@H](Cc1ccccc1)NC(=O)c1cnccn1)B(O)O [Bortezomib] (first compound 0.016 µM, partner dose 0.001 µM)	90.5
N#CC[C@H](C1CCCC1)n1cc(-c2ncnc3[nH]ccc23)cn1 [ruxolitinib] + C[C@]1(O)C[C@@H](c2nc(-c3ccc4ccc(-c5ccccc5)nc4c3)c3c(N)nccn32)C1 [OSI906] (first compound 1 µM, partner dose 0.4 µM)	114
Cc1cc(Nc2cc(N3CCN(C)CC3)nc(Sc3ccc(NC(=O)C4CC4)cc3)n2)n[nH]1 [Tozasertib] + CNC(=O)c1cc(Oc2ccc(NC(=O)Nc3ccc(Cl)c(C(F)(F)F)c3)cc2)ccn1 [sorafenib] (first compound 0.006 µM, partner dose 0.4 µM)	90.1
Cc1ccc(Nc2nccc(N(C)c3ccc4c(C)n(C)nc4c3)n2)cc1S(N)(=O)=O [Pazopanib] + CN1CCN(c2ccc3nc(-c4c(N)c5c(F)cccc5[nH]c4=O)[nH]c3c2)CC1 [Dovitinib] (first compound 0.4 µM, partner dose 0.1 µM)	50.4
Cc1cn(-c2cc(NC(=O)c3ccc(C)c(Nc4nccc(-c5cccnc5)n4)c3)cc(C(F)(F)F)c2)cn1 [nilotinib] + Cn1c(=O)n(-c2ccc(C(C)(C)C#N)cc2)c2c3cc(-c4cnc5ccccc5c4)ccc3ncc21 [NVP-BEZ235] (first compound 0.2 µM, partner dose 0.004 µM)	70.3
O=c1[nH]nc(Sc2ncc([N+](=O)[O-])s2)n1-c1ccc2c(c1)OCCO2 + C=CCNC1=C2C[C@@H](C)C[C@H](OC)[C@H](O)[C@@H](C)/C=C(\C)[C@H](OC(N)=O)[C@@H](OC)/C=C\C=C(/C)C(=O)NC(=CC1=O)C2=O [Tanespimycin] (first compound 0.2 µM, partner dose 0.002 µM)	82.1
CCCCCCCCCCCCCCCCCCOP(=O)([O-])OC1CC[N+](C)(C)CC1 [Perifosine] + C#Cc1cccc(Nc2ncnc3cc(OCCOC)c(OCCOC)cc23)c1 [erlotinib] (first compound 0.4 µM, partner dose 0.8 µM)	73.7
COc1cc([C@@H]2c3cc4c(cc3[C@@H](O[C@@H]3O[C@@H]5CO[C@@H](C)O[C@H]5[C@H](O)[C@H]3O)[C@H]3COC(=O)[C@H]23)OCO4)cc(OC)c1O [etoposide] + C[C@]1(O)C[C@@H](c2nc(-c3ccc4ccc(-c5ccccc5)nc4c3)c3c(N)nccn32)C1 [OSI906] (first compound 0.02 µM, partner dose 0.4 µM)	95.1
CCCCCCCCCCCCCCCCCCOP(=O)([O-])OC1CC[N+](C)(C)CC1 [Perifosine] + C[C@@H](N)c1ccc(C(=O)Nc2ccnc3[nH]ccc23)cc1 [RKI983] (first compound 0.4 µM, partner dose 0.4 µM)	92.1
CCCCCCCCCCCCCCCCCCOP(=O)([O-])OC1CC[N+](C)(C)CC1 [Perifosine] + CCCS(=O)(=O)Nc1ccc(F)c(C(=O)c2c[nH]c3ncc(Cl)cc23)c1F [PLX4720] (first compound 0.4 µM, partner dose 0.08 µM)	24.7
O=C(/C=C/c1cccnc1)NCCCCC1CCN(C(=O)c2ccccc2)CC1 + Cc1cc(Nc2cc(N3CCN(C)CC3)nc(/C=C/c3ccccc3)n2)n[nH]1 [ENMD2076] (first compound 0.01 µM, partner dose 0.04 µM)	170
O=C(/C=C/c1cccnc1)NCCCCC1CCN(C(=O)c2ccccc2)CC1 + Clc1ccc(Nc2nnc(Cc3ccncc3)c3ccccc23)cc1 [vatalanib] (first compound 0.01 µM, partner dose 2 µM)	204
Cc1cc(Nc2cc(N3CCN(C)CC3)nc(Sc3ccc(NC(=O)C4CC4)cc3)n2)n[nH]1 [Tozasertib] + CC1(C)CCC(c2ccc(Cl)cc2)=C(CN2CCN(c3ccc(C(=O)NS(=O)(=O)c4ccc(N[C@H](CCN5CCOCC5)CSc5ccccc5)c(S(=O)(=O)C(F)(F)F)c4)cc3)CC2)C1 [ABT263] (first compound 0.006 µM, partner dose 0.4 µM)	22.5
CCCCCCCCCCCCCCCCCCOP(=O)([O-])OC1CC[N+](C)(C)CC1 [Perifosine] + NC(=O)c1ccc(N(C(N)=O)c2c(F)cccc2F)nc1-c1ccc(F)cc1F [VX702] (first compound 0.4 µM, partner dose 0.4 µM)	62.2
CCCCCCCCCCCCCCCCCCOP(=O)([O-])OC1CC[N+](C)(C)CC1 [Perifosine] + CC(=O)c1c(C)c2cnc(Nc3ccc(N4CCNCC4)cn3)nc2n(C2CCCC2)c1=O [palbociclib] (first compound 0.4 µM, partner dose 0.04 µM)	222
Cc1ccc(Nc2nccc(N(C)c3ccc4c(C)n(C)nc4c3)n2)cc1S(N)(=O)=O [Pazopanib] + O=C(O)c1ccc2c(c1)nc(Nc1cccc(Cl)c1)c1ccncc12 [CX4945] (first compound 0.4 µM, partner dose 0.4 µM)	65.9
Cc1cn(-c2cc(NC(=O)c3ccc(C)c(Nc4nccc(-c5cccnc5)n4)c3)cc(C(F)(F)F)c2)cn1 [nilotinib] + C=C(c1ccc(C(=O)O)cc1)c1cc2c(cc1C)C(C)(C)CCC2(C)C [Bexarotene] (first compound 0.2 µM, partner dose 2 µM)	55.2

Some of the entries so far, in markdown.

| Compound | cleaved PARP positive nuclei fraction [%] |
| --- | --- |
| Cc1ccc(Nc2nccc(N(C)c3ccc4c(C)n(C)nc4c3)n2)cc1S(N)(=O)=O [Pazopanib] + CN1CCN(c2ccc3nc(-c4c(N)c5c(F)cccc5[nH]c4=O)[nH]c3c2)CC1 [Dovitinib] (first compound 0.4 µM, partner dose 0.1 µM) | 50.4 |
| Cc1cn(-c2cc(NC(=O)c3ccc(C)c(Nc4nccc(-c5cccnc5)n4)c3)cc(C(F)(F)F)c2)cn1 [nilotinib] + Cn1c(=O)n(-c2ccc(C(C)(C)C#N)cc2)c2c3cc(-c4cnc5ccccc5c4)ccc3ncc21 [NVP-BEZ235] (first compound 0.2 µM, partner dose 0.004 µM) | 70.3 |
